Experimental data as given in paper PMC3082224.
Construct, isoform or probe ends are uncertain for at least one entry. Results from cells or extracts need not show a direct contact. For some of these results: The comparison behind a weaker result is the experiment's own reference, which may not be listed here. For some of these results: At least one verdict rests on a figure or table, not on a statement of the authors. For some of these results: Where a protein sequence is shown, tags need not be part of it.

By UniProt entry, the sequences of proteins in these tests, tags left out.
UniProt P40763, whole entry: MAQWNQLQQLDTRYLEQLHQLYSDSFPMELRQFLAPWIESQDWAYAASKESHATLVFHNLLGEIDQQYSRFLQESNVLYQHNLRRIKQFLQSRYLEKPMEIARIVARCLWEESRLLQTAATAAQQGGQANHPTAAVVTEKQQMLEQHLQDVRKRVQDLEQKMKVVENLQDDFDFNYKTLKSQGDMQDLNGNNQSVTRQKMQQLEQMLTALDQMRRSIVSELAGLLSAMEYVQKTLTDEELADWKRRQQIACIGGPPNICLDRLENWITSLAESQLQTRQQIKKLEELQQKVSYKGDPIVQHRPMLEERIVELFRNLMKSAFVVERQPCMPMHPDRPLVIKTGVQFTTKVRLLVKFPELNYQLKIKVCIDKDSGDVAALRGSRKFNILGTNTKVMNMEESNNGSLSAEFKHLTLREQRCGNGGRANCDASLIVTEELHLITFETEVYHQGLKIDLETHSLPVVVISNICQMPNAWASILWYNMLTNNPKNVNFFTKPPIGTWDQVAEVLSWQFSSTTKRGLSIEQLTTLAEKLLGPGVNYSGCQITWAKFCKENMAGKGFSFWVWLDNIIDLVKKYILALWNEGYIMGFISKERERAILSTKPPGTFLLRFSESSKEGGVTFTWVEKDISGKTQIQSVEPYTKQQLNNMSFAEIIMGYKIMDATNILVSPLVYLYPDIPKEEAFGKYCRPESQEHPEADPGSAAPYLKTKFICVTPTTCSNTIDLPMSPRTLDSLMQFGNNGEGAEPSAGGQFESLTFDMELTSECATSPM
UniProt Q04206, whole entry: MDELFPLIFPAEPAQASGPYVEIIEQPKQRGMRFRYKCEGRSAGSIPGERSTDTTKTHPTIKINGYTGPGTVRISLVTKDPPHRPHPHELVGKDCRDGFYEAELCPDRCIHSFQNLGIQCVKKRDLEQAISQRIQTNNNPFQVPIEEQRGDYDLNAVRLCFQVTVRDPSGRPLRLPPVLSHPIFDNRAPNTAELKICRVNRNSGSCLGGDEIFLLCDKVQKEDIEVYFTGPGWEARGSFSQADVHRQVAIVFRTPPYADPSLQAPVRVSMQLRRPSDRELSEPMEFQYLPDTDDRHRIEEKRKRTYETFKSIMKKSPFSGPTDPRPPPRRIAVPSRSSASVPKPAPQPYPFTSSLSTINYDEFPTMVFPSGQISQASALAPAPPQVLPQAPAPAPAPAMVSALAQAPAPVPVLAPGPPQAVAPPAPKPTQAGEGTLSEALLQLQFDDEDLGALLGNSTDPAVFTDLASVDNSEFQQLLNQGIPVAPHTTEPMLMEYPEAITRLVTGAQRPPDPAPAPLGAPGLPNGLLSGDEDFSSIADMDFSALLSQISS

How the values were obtained:
Assay in all cases: pull-down
[1] = tested on: STAT3 (activated, endogenous) + NF-kB (p50 or p65 immunoblot); conditions: nuclear fraction, IL-6-treated cells, NF-kB indirectly via STAT3; 5' amino-(CH2)6 and 3' (CH2)3-amino linkers; 1% NP40, 50 mM Hepes pH 7.6, 140 mM NaCl, salmon sperm DNA 1 ug/assay, 1 ug biotinylated ODN, 100-200 ug nuclear extract, 30 min at 4 C, then avidin-Sepharose 2 h; protein in an extract; label: biotin on linkers; folded or branched DNA
[2] = molecular target: STAT3 (activated, endogenous) (Homo sapiens (SW 480 colon adenocarcinoma cells)) (UniProt P40763); conditions: 5' amino-(CH2)6 and 3' (CH2)3-amino linkers, 1% NP40, 50 mM Hepes pH 7.6, 140 mM NaCl, salmon sperm DNA 1 ug/assay, 1 ug biotinylated ODN, 100-200 ug nuclear extract, 30 min at 4 C, then avidin-Sepharose 2 h, protein in an extract, label: biotin on linkers, folded or branched DNA
[3] = molecular target: NF-kB p65 (Homo sapiens (SW 480 cells)) (UniProt Q04206); conditions: nuclear fraction, TNF-alpha-treated cells, higher basal level; 5' amino-(CH2)6 and 3' (CH2)3-amino linkers; 1% NP40, 50 mM Hepes pH 7.6, 140 mM NaCl, salmon sperm DNA 1 ug/assay, 1 ug biotinylated ODN, 100-200 ug nuclear extract, 30 min at 4 C, then avidin-Sepharose 2 h; protein in an extract; label: biotin on linkers; folded or branched DNA
[4] = molecular target: T1, NF-kB p50 (Homo sapiens (SW 480 cells)) (UniProt P19838); conditions: nuclear fraction, TNF-alpha-treated cells, insensitive to STAT3-decoy; 5' amino-(CH2)6 and 3' (CH2)3-amino linkers; 1% NP40, 50 mM Hepes pH 7.6, 140 mM NaCl, salmon sperm DNA 1 ug/assay, 1 ug biotinylated ODN, 100-200 ug nuclear extract, 30 min at 4 C, then avidin-Sepharose 2 h; protein in an extract; label: biotin on linkers; folded or branched DNA
T1 sequence (looked up, limits assumed): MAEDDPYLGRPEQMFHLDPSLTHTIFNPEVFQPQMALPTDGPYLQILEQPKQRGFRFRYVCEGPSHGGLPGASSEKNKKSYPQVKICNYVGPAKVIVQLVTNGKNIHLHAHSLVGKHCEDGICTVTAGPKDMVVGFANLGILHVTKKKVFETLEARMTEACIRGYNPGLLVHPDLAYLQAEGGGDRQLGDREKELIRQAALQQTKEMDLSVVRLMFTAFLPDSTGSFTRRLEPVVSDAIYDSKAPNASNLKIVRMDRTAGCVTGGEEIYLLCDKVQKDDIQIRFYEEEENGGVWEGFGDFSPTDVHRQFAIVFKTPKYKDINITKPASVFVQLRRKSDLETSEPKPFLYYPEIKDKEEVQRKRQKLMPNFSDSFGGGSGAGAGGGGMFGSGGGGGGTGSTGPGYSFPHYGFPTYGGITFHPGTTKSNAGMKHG

| Sequence | binding result [1] | binding result ([2]; cytoplasmic fraction, untreated and IL-6-treated cells) | binding result ([2]; intracellular pull-down from cells transfected with biotinylated decoy, complex lacks karyopherin alpha) | binding result ([2]; nuclear extract, IL-6-treated cells) | binding result ([2]; nuclear extract, untreated cells, salmon sperm DNA competitor) | binding result [3] | binding result [4] |
| --- | --- | --- | --- | --- | --- | --- | --- |
| CATTTCCCGTAAATCGAAGATTTACGGGAAATG [hp STAT3-decoy ODN] | binds | binds more weakly | binds | binds | binds |  |  |
| CTGGAAAGTCCCTCGAAGAGGGACTTTCCAG [hairpin decoy NF-kB-ODN] |  |  |  |  |  | binds | binds |
